# Results: publication PMC8486872, “A rational blueprint for the design of chemically-controlled protein switches” (Nature Communications, 2021)
# The source holds more than one record for some entries. The other results are left out here. There may be further records. For part of these data: Values given together seem to repeat one measurement (runs, samples, wells or individuals). For part of these data: The values listed for one entry seem to repeat one measurement; a mean can stand among them.
# Experiments:
# [1] = tested on: anti-HER2 CAR expression in HEK293T cells; assay: Flow cytometry of surface expression of anti-HER2 CAR induced by AIR-1-TF; settings: 1 µM Drug-1, 24 h
# [2] = tested on: SEAP and Luciferase expression in HEK293T cells; assay: SIMO designer cells (AIR-1/2-GEMS + CDH-1/2-TF); settings: Fig S13i, CDH-1-TF control Luciferase expression only
smiles,measurement,setting,value
CN(C)CC#Cc1ccc(OCCCc2sc(N3CCc4cccc(C(=O)Nc5nc6ccccc6s5)c4C3)nc2C(=O)O)c(F)c1,"anti-HER2 CAR expression, negative control (Neg, no TF switch)",[1],4.89 and 4.097
same,Luciferase,[2]; Drug-1 0.1 nM,"2.233 RLU, 4.772 RLU, 6.414 RLU"
same,Luciferase,[2]; Drug-1 1 nM,"1.251 RLU, 5.155 RLU, 4.586 RLU"
